Source: publication PMC8203837, “Optogenetically-induced multimerization of the dopamine transporter increases uptake and trafficking to the plasma membrane” (The Journal of Biological Chemistry, 2021)
Results are given in words; binding and its absence hold for the method and conditions named. In cells and extracts the contact can be indirect. Some binding calls cover weakened binding; strength is not graded here.

Chains of the proteins cited; added tags and fusions are not shown.
UniProt Q01959: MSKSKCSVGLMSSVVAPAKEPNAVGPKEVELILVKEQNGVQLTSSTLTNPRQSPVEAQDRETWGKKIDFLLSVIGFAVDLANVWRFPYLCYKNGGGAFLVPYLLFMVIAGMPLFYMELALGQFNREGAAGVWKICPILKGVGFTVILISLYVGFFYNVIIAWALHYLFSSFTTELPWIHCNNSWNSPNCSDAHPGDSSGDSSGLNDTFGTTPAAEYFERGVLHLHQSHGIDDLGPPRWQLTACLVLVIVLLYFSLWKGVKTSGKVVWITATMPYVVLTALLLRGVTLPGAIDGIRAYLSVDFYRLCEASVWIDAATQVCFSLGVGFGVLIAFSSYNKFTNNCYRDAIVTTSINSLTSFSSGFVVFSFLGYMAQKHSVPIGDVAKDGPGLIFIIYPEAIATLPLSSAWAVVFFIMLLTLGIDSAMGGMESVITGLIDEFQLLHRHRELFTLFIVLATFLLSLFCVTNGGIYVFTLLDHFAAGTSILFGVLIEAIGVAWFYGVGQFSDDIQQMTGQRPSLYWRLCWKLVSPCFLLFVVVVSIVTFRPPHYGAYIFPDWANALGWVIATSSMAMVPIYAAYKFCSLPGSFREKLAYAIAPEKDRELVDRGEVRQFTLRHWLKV

Target: YFP–DAT (dopamine transporter with N-terminal YFP) (UniProt Q01959)
Experiment: FRET or BRET; live-cell acceptor-photobleaching FRET at the plasma membrane, HEK293 cells stably expressing YFP–DAT and transfected with Cry2–DAT or CFP–DAT; vehicle or 10 μM METH 2 min, blue light (488 nm, 4% laser output) as indicated

With CFP–DAT (from UniProt Q01959 1-620) the binding was “binds”.
